“Also recorded” adds a separate entry of the source. At least one structure is not confirmed: it was looked up by name or label, or the drawing left a doubt.
Experiments:
H+, K+-ATPase = test: Intracellular pH recovery in isolated rat fundic (F1) glands; format: cell-based
Description: Male Sprague Dawley rats weighing 200-300 g were housed in climate and humidity controlled, light cycled rooms and fed standard chow with free access to water. Prior to experiments, animals were fasted while allowing free access to water for 18-24 hours to reduce basal acid secretion. Following isoflurane anesthesia the animals were sacrificed, an abdominal incision was made exposing the stomach. After isolating the esophagus and duodenal junctures a total gastrectomy was performed with 1-2 cm of esophagus remaining attached to the gastrectomy. We included the esophageal juncture to have a common landmark for all fundic isolations. While holding the esophagus with forceps approximately 3 mm of fundus was removed with 5 mm of the intact esophagus. The removed fundic tissue was placed in ice cold HEPES-buffered Ringer-solution (pH adjusted to 7.4 at 4° C.) and transferred to the stage of a dissection microscope. The fundic glands were visualized under the microscope at 50× magnification. Glands adjacent to the esophageal junction were hand dissected. […] Acid extrusion was monitored in the absence of bicarbonate. […] All data are summarized as mean±S.E. Significance was determined using the one-way ANOVA test with p<0.05 considered to be statistically significant. […]

Sequences of proteins named here, by UniProt entry; tags and fusion partners are left off.
UniProt P09626, whole entry: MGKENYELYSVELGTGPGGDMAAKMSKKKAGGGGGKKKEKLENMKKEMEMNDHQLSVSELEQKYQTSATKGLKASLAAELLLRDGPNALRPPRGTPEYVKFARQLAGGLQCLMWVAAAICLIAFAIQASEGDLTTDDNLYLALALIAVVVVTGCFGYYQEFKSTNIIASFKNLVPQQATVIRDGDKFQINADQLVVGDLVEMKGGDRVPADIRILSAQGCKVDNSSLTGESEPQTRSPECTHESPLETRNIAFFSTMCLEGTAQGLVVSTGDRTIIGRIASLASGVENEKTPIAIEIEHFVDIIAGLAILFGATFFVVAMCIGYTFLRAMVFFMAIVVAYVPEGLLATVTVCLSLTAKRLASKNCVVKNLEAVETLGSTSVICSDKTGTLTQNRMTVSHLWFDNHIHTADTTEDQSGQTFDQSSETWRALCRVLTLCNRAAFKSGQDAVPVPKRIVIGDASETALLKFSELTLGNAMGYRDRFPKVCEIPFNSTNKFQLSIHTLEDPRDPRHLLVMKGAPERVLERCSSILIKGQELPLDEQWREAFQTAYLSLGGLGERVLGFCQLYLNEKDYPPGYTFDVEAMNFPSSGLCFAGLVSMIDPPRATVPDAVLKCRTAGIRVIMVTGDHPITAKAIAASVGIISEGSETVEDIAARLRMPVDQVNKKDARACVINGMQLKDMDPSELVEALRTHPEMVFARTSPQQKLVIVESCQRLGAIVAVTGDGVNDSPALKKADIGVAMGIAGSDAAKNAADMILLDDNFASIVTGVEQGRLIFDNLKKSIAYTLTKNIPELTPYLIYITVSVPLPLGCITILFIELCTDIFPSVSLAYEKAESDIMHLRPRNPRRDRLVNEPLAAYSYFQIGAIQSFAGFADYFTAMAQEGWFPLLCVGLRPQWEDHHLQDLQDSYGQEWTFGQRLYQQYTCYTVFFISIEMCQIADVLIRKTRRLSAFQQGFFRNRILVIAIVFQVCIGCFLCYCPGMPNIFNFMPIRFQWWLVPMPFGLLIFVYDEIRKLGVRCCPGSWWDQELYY

H+/K+-ATPase = target: T1, H+/K+-ATPase (Rattus norvegicus, UniProt P09626); test: Intracellular pH recovery in rat corpus glands (comparison with fundus); format: cell-based; conditions: 200 μM omeprazole, histamine 100 μM
T1 construct: Individual glands were isolated using a hand-dissection technique; from tissue; host or cells: hand-dissected gastric glands of Sprague-Dawley rats (corpus/antrum)
Description: Molecular Probes, OR USA)) for 15 minutes. […] Measurements were performed in the epifluorescence mode with 60×/0.80 and 40×/0.90 objectives. […] Data points were acquired every 15 s. […] Acid extrusion was monitored in the absence of bicarbonate. […] All data are summarized as mean±S.E. Significance was determined using the one-way ANOVA test with p<0.05 considered to be statistically significant. All chemicals used were obtained from Sigma and Molecular Probes.

acid secretion = conditions: first day of treatment; cited from earlier work

Which “effect of secretagogue on F1 zone glands in comparison to controls, in words” value (H+, K+-ATPase; 100 μM) does the source give for `CC(=O)OCC[N+](C)(C)C` [acetylcholine] here?
The value was “increase in the rate of alkalinization”.

Which results are given for `COc1ccc2[nH]c([S+]([O-])Cc3ncc(C)c(OC)c3C)nc2c1` (stereo not shown) [omeprazole]?
inhibition of acid secretion in F1 (fundic) glands, in words (H+, K+-ATPase; omeprazole 200 μM with histamine 100 μM, AZD0865 10 μM): did not inhibit acid secretion; also recorded: does not inhibit acid secretion; intracellular alkalinization rate in corpus glands (H+/K+-ATPase): 0.014±0.002 ΔpHi/min; inhibition of acid secretion (acid secretion): 30%

— patent US11510894B2, “Fast acting inhibitor of gastric acid secretion” (priority 2006, dated 2022)
